Data from article PMC2494559.
These are yes or no findings as the source states them, for the method shown. Some binding calls cover weakened binding; strength is not graded here.

The chains behind the UniProt entries cited, without tags or fusion partners. Residues count along the entry.
UniProt P9WNK7, residues 6-25: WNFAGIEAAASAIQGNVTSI

Target: synthetic peptide E20 corresponding to residues 6–25 of ESAT-6 (Mycobacterium tuberculosis) (UniProt P9WNK7)
Assay: fibril formation followed by electron microscopy + thioflavin T binding; […] (10 mM Tris, 1 mM EDTA, 25 mM DTT), […]; both purified

synthetic peptide E20 corresponding to residues 6–25 of ESAT-6 (from UniProt P9WNK7 6-25)
binding: binds
